The values that follow come from the supplement of paper PMC10849652.

Amino acid sequences for entries named in this document (tags omitted). A change or cut given only in a name is not applied to a line headed by its entry.
UniProt Q8NEY8: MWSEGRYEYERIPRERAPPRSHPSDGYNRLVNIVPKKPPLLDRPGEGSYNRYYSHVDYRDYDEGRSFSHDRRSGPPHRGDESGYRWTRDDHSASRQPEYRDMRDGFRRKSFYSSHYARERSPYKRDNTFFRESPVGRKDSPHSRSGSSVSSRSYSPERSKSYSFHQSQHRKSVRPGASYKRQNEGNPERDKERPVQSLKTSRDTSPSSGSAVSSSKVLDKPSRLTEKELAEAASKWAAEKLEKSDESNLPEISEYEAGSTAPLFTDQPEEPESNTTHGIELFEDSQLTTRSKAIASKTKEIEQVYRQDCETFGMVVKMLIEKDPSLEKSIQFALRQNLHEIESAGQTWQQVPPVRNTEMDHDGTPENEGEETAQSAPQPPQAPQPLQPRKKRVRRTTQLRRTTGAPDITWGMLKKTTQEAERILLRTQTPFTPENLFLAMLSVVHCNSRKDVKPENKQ
UniProt Q8IY17: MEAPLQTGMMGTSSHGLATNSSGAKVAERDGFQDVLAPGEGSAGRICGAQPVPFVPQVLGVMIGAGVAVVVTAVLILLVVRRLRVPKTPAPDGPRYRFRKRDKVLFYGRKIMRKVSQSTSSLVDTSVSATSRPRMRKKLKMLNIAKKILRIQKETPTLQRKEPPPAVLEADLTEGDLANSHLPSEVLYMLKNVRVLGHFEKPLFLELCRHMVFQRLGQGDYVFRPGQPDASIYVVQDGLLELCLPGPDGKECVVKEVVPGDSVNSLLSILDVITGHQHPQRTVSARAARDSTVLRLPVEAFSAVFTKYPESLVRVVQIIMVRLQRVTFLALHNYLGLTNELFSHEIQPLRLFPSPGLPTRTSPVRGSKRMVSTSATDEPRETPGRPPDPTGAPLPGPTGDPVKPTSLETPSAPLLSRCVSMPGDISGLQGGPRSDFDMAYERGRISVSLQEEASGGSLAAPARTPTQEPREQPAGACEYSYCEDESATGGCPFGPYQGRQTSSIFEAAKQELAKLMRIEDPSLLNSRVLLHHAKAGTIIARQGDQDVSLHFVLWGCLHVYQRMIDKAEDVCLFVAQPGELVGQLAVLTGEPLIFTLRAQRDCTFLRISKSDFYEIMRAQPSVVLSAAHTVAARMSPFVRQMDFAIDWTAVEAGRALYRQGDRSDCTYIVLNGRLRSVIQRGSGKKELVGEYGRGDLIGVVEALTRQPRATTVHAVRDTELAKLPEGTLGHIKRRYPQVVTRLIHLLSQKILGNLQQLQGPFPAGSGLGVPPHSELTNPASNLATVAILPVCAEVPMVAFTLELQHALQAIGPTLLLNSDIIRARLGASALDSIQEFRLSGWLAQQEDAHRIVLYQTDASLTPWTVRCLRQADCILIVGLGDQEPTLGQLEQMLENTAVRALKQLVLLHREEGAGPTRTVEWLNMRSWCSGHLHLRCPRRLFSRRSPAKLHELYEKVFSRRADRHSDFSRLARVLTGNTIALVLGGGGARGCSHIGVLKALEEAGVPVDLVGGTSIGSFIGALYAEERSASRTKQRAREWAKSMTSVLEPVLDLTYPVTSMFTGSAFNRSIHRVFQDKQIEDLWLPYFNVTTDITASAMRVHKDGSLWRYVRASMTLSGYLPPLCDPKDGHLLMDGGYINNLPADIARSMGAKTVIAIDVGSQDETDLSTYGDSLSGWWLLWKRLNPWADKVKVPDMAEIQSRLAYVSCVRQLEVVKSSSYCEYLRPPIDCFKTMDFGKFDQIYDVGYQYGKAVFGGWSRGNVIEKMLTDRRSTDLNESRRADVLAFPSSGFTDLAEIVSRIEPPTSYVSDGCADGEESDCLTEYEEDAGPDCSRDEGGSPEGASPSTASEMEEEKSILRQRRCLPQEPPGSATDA
UniProt Q8WVV4: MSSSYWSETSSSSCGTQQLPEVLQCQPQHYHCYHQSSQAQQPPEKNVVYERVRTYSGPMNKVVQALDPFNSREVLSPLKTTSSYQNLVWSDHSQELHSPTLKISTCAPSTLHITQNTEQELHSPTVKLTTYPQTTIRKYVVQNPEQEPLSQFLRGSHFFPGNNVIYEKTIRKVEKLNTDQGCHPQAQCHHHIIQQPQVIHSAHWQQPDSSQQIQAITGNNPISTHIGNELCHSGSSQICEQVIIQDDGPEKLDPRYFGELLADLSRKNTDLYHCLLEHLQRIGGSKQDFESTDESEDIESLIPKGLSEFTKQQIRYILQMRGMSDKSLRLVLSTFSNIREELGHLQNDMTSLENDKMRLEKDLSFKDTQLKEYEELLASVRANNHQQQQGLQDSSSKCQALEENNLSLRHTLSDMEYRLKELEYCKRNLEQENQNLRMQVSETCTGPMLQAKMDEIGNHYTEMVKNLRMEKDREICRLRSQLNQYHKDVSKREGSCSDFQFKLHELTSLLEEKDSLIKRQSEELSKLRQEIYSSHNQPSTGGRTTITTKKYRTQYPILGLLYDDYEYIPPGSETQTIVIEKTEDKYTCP
UniProt Q9NR33: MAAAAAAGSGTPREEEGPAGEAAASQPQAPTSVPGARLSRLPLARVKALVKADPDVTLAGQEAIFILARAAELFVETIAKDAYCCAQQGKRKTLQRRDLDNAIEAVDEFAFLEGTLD
UniProt Q8TD55: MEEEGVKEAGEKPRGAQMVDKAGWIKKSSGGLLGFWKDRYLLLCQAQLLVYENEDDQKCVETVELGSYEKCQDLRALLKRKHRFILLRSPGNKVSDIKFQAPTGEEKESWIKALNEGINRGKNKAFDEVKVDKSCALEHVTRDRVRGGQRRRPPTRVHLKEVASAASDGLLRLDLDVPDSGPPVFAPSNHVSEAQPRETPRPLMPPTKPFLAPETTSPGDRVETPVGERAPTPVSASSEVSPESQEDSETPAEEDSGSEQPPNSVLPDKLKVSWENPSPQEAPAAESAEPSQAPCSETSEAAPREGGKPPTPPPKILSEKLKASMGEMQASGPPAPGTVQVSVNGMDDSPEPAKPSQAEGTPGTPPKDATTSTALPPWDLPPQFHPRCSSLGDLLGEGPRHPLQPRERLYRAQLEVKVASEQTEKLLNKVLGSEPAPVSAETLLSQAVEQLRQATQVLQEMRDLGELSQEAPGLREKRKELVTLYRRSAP
UniProt O00411: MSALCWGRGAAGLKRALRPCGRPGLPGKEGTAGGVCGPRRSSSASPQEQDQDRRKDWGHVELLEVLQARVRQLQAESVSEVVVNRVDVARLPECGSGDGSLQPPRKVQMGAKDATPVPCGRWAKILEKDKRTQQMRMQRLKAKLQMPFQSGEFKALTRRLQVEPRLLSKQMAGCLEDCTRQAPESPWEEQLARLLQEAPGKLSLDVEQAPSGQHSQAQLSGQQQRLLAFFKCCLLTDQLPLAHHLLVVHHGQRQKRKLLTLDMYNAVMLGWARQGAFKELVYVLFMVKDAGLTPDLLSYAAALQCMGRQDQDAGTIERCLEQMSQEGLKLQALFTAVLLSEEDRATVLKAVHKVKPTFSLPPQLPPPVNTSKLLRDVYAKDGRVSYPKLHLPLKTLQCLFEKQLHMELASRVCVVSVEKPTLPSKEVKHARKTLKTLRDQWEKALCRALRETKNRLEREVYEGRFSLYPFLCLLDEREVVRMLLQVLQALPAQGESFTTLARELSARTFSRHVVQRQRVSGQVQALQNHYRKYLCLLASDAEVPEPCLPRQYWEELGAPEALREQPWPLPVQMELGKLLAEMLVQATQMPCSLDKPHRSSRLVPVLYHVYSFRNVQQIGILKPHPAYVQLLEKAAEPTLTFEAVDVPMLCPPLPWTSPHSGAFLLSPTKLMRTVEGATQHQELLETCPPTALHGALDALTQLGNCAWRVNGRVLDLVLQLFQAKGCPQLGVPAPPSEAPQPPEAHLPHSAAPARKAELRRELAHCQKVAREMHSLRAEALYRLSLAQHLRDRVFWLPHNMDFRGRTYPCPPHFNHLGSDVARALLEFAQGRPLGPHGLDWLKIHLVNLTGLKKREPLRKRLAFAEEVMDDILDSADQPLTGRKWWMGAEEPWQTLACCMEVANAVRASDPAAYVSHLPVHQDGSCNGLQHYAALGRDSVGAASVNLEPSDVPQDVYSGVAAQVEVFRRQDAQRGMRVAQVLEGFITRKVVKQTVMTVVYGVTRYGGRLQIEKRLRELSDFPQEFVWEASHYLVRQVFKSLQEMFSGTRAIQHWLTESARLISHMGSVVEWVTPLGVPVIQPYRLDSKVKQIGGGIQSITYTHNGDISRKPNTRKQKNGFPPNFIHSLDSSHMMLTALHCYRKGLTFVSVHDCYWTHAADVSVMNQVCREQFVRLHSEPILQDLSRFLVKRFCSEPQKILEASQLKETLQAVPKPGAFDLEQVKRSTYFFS
UniProt P53350, whole entry, looked up: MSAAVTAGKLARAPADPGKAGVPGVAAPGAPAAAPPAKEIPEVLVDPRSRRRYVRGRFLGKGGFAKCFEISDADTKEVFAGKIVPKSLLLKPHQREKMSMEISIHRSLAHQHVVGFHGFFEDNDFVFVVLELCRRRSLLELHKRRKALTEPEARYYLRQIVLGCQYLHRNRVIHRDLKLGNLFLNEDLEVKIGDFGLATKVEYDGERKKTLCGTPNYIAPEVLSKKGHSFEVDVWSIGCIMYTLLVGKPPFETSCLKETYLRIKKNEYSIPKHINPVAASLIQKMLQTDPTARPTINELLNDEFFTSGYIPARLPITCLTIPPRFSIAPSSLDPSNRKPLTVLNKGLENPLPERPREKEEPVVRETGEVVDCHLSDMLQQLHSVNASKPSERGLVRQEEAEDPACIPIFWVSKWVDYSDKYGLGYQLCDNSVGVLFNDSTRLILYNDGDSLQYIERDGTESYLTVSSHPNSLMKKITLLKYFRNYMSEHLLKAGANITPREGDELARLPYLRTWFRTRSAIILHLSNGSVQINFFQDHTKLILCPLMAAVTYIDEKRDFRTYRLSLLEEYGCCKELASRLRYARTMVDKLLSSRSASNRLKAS
UniProt P05423: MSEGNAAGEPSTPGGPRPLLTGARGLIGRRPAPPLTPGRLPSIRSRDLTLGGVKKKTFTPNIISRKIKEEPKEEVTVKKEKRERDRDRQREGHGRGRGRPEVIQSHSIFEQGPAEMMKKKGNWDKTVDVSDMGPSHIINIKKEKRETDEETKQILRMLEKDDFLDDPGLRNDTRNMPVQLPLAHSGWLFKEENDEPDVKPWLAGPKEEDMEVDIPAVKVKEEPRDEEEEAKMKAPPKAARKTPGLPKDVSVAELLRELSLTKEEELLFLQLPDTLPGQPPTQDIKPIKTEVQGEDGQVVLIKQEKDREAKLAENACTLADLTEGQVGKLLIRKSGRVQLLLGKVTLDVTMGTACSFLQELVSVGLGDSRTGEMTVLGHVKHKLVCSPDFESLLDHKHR
UniProt P62937, whole entry, looked up: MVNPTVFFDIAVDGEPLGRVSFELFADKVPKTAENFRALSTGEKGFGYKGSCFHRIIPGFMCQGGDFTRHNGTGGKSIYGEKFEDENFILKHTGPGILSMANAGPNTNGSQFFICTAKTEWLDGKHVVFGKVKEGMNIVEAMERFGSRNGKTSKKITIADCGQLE
UniProt Q9UKY4: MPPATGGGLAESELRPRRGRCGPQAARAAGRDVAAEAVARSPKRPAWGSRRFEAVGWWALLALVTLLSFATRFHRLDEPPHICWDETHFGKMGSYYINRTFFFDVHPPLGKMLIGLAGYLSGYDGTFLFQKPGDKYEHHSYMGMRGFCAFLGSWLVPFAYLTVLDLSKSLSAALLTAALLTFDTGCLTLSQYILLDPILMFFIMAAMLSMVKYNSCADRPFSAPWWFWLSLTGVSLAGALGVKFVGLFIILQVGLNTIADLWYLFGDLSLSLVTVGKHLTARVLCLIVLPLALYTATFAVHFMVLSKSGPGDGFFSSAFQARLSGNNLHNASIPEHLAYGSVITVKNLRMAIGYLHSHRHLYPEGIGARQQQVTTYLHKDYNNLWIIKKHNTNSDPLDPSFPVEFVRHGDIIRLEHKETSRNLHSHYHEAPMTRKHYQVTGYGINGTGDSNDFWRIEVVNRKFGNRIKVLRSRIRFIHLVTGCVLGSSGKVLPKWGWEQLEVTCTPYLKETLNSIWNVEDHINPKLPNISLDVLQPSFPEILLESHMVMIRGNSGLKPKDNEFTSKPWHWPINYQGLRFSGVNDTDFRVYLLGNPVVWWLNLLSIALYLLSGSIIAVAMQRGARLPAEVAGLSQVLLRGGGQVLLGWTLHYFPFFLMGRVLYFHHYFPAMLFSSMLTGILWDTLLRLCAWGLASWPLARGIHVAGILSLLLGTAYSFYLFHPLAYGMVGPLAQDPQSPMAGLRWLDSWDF
UniProt Q15126: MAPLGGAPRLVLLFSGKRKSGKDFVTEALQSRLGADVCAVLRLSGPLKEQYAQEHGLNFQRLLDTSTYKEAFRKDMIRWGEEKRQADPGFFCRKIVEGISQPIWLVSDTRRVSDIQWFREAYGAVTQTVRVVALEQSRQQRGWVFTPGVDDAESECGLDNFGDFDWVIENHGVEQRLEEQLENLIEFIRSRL

The list shows a part of the results.

Compound in the assay: COC(=O)[C@H](CCSC)NC(=O)C1=C(C=C(C=C1)NC[C@H](CS)N)C2=CC=CC=C2
Kind of assay: log2 fold change, soluble protein after heating vs DMSO (PISA); higher = thermal stabilisation; K562 cells, 10 uM, 30 min; active = over 0.2 and 3.5 SD of the protein, either way, in both replicates (recomputed). The method, boiled down:
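Soluble protein was defined as the supernatant after 21,000xg for 90 min. It came from K562 cells at 2×10^6 cells/mL given 10 μM compound for 30 min, heated in aliquots for 3 min across 48°C-58°C, pooled, and extracted in PBS with 0.5% NP-40 at 4°C, and was quantified by TMTpro 16plex LC-MS/MS with equalised channel sums. Thermal stability against control samples, from duplicates, is reported as log2 fold change.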
POC1A (UniProt Q8NBT0): the log2 fold change is inactive: 0.052.

Consider PPHLN1 (UniProt Q8NEY8), for which the log2 fold change is inactive: 0.071.

PNPLA6 (UniProt Q8IY17): the log2 fold change was inactive: 0.01.

On to POF1B isoform 1 (UniProt Q8WVV4), for which the log2 fold change is inactive: -0.12.

In the case of POLE4 (UniProt Q9NR33), the log2 fold change was inactive: -0.043.

Turning to POLR1E isoform 1 (UniProt Q9GZS1), the log2 fold change is inactive: 0.204.

As to POLR2E (UniProt P19388), the log2 fold change was inactive: -0.081.

In the case of PLEKHO2 (UniProt Q8TD55), the log2 fold change was inactive: -0.108.

Consider POLRMT (UniProt O00411), for which the log2 fold change was inactive: 0.108.

PLK1 (UniProt P53350): the log2 fold change was inactive: -0.013.

On to PLXND1 (UniProt Q9Y4D7), for which the log2 fold change was inactive: 0.037.

Consider POMT1 (UniProt Q9Y6A1), for which the log2 fold change is inactive: 0.009.

PORCN (UniProt Q9H237): the log2 fold change was inactive: 0.127.

POLR3D (UniProt P05423): the log2 fold change is inactive: -0.08.

Turning to PPIA isoform 2 (UniProt P62937), the log2 fold change is inactive: 0.074.

Consider POMT2 (UniProt Q9UKY4), for which the log2 fold change is inactive: -0.003.

Take PMM1 (UniProt Q92871): the log2 fold change is inactive: -0.023.

Take PMVK (UniProt Q15126): the log2 fold change is inactive: -0.368.
